This assay deals with cGAS (human (endogenous in HMC3)) (UniProt Q8N884). The assay is described as follows: co-IP; cytosolic components of HMC3 cells (0.025% digitonin, 50 mM Tris-HCl pH 7.5, 150 mM NaCl) expressing EGFP or EGFP tagged TOP3α for 1 day; endogenous cGAS precipitated with anti-cGAS beads; SDS-PAGE and immunoblotting. In general terms: A western blot detects proteins with antibodies after separation by electrophoresis.

Protein sequences, listed by entry. Tags and fused reporters are not part of them.
UniProt Q8N884: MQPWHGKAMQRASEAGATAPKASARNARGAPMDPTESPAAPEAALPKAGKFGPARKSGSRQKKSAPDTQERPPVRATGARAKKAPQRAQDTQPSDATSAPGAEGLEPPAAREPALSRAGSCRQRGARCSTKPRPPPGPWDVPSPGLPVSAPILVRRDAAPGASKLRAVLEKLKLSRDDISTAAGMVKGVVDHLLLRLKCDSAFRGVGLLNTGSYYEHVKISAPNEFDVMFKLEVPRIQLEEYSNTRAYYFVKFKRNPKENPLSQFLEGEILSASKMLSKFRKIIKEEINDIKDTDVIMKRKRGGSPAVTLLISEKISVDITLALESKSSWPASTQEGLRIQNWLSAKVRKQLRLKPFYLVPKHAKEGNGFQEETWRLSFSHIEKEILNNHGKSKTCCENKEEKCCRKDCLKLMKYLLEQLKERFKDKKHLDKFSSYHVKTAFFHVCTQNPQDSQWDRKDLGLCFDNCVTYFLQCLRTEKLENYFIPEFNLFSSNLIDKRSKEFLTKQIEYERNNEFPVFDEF

Our source for the binding values is article PMC12678531, “Cytosolic TOP3α facilitates mitochondrial DNA sensing by cGAS”.

These are yes or no findings as the source states them, for the method shown. In cells and extracts the contact can be indirect. Where a sequence is shown, tags or fusion partners need not be part of it.

B1: EGFP tagged TOP3α (Topoisomerase 3α) (protein, UniProt Q13472 1-1001)
chain: MIFPVARYALRWLRRPEDRAFSRAAMEMALRGVRKVLCVAEKNDAAKGIADLLSNGRMRRREGLSKFNKIYEFDYHLYGQNVTMVMTSVSGHLLAHDFQMQFRKWQSCNPLVLFEAEIEKYCPENFVDIKKTLERETRQCQALVIWTDCDREGENIGFEIIHVCKAVKPNLQVLRARFSEITPHAVRTACENLTEPDQRVSDAVDVRQELDLRIGAAFTRFQTLRLQRIFPEVLAEQLISYGSCQFPTLGFVVERFKAIQAFVPEIFHRIKVTHDHKDGIVEFNWKRHRLFNHTACLVLYQLCVEDPMATVVEVRSKPKSKWRPQALDTVELEKLASRKLRINAKETMRIAEKLYTQGYISYPRTETNIFPRDLNLTVLVEQQTPDPRWGAFAQSILERGGPTPRNGNKSDQAHPPIHPTKYTNNLQGDEQRLYEFIVRHFLACCSQDAQGQETTVEIDIAQERFVAHGLMILARNYLDVYPYDHWSDKILPVYEQGSHFQPSTVEMVDGETSPPKLLTEADLIALMEKHGIGTDATHAEHIETIKARMYVGLTPDKRFLPGHLGMGLVEGYDSMGYEMSKPDLRAELEADLKLICDGKKDKFVVLRQQVQKYKQVFIEAVAKAKKLDEALAQYFGNGTELAQQEDIYPAMPEPIRKCPQCNKDMVLKTKKNGGFYLSCMGFPECRSAVWLPDSVLEASRDSSVCPVCQPHPVYRLKLKFKRGSLPPTMPLEFVCCIGGCDDTLREILDLRFSGGPPRASQPSGRLQANQSLNRMDNSQHPQPADSRQTGSSKALAQTLPPPTAAGESNSVTCNCGQEAVLLTVRKEGPNRGRQFFKCNGGSCNFFLWADSPNPGAGGPPALAYRPLGASLGCPPGPGIHLGGFGNPGDGSGSGTSCLCSQPSVTRTVQKDGPNKGRQFHTCAKPREQQCGFFQWVDENTAPGTSGAPSWTGDRGRTLESEARSKRPRASSSDMGSTAKKPRKCSLCHQPGHTRPFCPQNR
As to B1, the binding result is “no binding”.
